No constants are given. Whether binding was seen depends on the method and setting.
Biological target: MamAΔ41 from Magnetospirillum magneticum AMB-1 (Magnetospirillum magneticum AMB-1) (UniProt Q2W8Q0)
Test: SEC; Superdex 200; sizes from elution volumes against protein markers; buffer for these proteins not stated; both purified

B1: MamAΔ41 from Magnetospirillum magneticum AMB-1 (domain or fragment, UniProt Q2W8Q0 42-217)
chain: DDIRQVYYRDKGISHAKAGRYSQAVMLLEQVYDADAFDVDVALHLGIAYVKTGAVDRGTELLERSLADAPDNVKVATVLGLTYVQVQKYDLAVPLLIKVAEANPINFNVRFRLGVALDNLGRFDEAIDSFKIALGLRPNEGKVHRAIAFSYEQMGRHEEALPHFKKANELDEGASV
  binding: no binding

From paper PMC4482739, “MamA as a Model Protein for Structure-Based Insight into the Evolutionary Origins of Magnetotactic Bacteria” (PLoS ONE, 2015)
